Results published in patent US20050054008A1.
These are yes or no findings as the source states them, for the method shown. Binding seen in cells or lysates may run through a third protein. Some entries that bind do so weakly or less than the wild type. For some assays here: Where a sequence is shown, tags or fusion partners need not be part of it.

Sequences of proteins named here, by UniProt entry; tags and fusion partners are left off. A change or cut given only in a name is not applied to a line headed by its entry.
UniProt Q9Y6K9: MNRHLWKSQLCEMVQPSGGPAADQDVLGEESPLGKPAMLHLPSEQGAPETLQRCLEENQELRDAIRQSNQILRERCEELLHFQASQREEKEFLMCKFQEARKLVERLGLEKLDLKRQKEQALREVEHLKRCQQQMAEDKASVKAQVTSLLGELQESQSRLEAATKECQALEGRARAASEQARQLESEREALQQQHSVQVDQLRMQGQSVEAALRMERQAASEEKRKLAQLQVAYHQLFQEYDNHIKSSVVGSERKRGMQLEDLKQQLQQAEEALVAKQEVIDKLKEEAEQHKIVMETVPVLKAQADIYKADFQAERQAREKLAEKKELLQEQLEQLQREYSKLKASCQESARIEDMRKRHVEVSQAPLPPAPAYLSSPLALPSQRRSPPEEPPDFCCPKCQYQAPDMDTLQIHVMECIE
UniProt P22736: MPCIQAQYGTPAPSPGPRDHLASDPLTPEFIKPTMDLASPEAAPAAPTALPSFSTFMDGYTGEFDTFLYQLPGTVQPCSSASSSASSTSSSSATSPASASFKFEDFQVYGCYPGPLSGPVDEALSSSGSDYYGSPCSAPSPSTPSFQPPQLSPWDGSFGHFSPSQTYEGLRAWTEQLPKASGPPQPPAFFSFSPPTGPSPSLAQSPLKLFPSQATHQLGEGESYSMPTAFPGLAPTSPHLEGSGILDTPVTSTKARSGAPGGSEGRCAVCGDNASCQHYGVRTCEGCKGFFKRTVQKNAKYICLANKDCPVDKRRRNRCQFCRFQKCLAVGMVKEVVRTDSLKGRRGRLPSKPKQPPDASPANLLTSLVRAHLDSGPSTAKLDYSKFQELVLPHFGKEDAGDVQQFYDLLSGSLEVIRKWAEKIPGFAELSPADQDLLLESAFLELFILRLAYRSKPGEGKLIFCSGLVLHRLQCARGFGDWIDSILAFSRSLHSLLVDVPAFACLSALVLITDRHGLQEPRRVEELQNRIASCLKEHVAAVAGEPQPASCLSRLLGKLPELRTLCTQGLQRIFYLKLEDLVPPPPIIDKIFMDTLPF
UniProt P19793: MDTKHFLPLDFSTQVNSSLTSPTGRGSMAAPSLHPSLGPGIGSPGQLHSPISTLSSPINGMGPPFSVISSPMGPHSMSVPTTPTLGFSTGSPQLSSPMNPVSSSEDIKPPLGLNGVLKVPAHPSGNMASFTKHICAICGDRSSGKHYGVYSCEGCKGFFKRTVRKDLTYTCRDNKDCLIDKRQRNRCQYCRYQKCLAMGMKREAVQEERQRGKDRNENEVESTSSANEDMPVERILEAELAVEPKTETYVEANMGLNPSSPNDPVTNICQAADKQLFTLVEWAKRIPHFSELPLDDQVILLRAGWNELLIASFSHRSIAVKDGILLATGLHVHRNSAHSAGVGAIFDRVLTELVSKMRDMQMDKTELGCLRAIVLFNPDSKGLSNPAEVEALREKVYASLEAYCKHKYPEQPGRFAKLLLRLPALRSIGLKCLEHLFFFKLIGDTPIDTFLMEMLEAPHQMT

What was measured:
[1] = target: T1, IKKβ (IkB kinase beta subunit), tagged, expressed from pcDNA3 in HEK293T cells (UniProt O14920); assay: co-immunoprecipitation of tagged proteins (figure legend)
T1 sequence (looked up): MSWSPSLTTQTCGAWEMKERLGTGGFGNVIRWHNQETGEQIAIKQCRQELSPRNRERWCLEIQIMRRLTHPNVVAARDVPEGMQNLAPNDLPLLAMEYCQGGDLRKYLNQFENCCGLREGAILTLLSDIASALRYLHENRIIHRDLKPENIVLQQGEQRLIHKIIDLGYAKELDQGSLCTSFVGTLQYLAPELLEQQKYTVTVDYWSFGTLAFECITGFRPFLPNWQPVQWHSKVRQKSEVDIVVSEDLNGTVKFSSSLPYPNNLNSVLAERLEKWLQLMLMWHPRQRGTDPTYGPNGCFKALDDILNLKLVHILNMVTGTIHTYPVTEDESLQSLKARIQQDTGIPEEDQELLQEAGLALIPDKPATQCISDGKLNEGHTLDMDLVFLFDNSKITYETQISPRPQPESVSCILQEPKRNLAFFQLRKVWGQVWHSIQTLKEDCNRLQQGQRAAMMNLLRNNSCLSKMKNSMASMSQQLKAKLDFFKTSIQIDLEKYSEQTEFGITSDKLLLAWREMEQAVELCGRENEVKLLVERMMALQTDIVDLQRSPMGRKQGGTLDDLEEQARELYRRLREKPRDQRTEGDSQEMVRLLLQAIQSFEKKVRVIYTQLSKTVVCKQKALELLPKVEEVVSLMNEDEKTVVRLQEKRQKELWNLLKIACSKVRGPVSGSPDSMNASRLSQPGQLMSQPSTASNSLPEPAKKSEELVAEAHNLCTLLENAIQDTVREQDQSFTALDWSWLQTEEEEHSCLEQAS

[2] = target: T1, IKKβ (IkB kinase beta subunit), tagged, expressed from pcDNA3 in HEK293T cells; assay: co-immunoprecipitation from transfected HEK293T cells treated with sulindac sulfide (75 uM, 6 hr)
[3] = target: HA-IKKγ (UniProt Q9Y6K9); assay: co-immunoprecipitation of tagged proteins (figure legend)
[4] = target: HA-IKKγ (UniProt Q9Y6K9); assay: co-immunoprecipitation from HEK293T cells transfected with HA-IKKγ and Flag-RXRα
[5] = target: TR3/467 (TR3 mutant comprising a truncated C-terminus) (Homo sapiens (Human)) (UniProt P22736); assay: GST pull-down, immunoblot

RXR.alpha., tagged, expressed from pcDNA3 in HEK293T cells (co-immunoprecipitation with IKK.beta.) (from UniProt P19793 1-462) (receptor)
binding [1]: binds | binding [2]: binds

Flag-RXR.alpha. (from UniProt P19793 1-462) (receptor)
binding [3]: binds | binding [4]: binds

GST-RXR.alpha. (from UniProt P19793 1-462)
binding [5]: binds
